Data as given in PubChem BioAssay AID686938 (Drosophila RNAi Screening Center, 2013).

Test: 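Fly genes required for calcium entry once internal stores are emptied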 (primary screen)
System: Drosophila S2R+ cells
Knock-down reagent: long dsRNA against Drosophila genes, about 0.25 µg dsRNA per well, roughly 10,000 cells
Time to read-out: 5 days of knock-down before the calcium assay
Conditions: thapsigargin (SERCA pump blocker) to empty calcium stores; entry signal taken 4 min after adding it
Detection: 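Per-well fluo-4 fluorescence in two replicates, unnormalised, measured in resting cells and 4 min after store depletion by the SERCA blocker thapsigargin; ratio of the two present in few wells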
Scale: calcium entry signal: higher = stronger calcium signal after store depletion; resting calcium signal: higher = higher resting calcium signal
Units: calcium entry signal in fluorescence units; resting calcium signal in fluorescence units
Rule for the call: 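Hit if the duplicate-averaged plate z-score for entry over resting signal is under −3; wells with weak total dye signal (Fmax z < −2) or more than 5 off-targets removed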
Calls: active = strongly reduced calcium entry; inactive = no strong reduction
The deposit covers about 23,000 reagents; below is an unselected part of those with a known target gene and a result. Over the whole deposit, 75 (0.33%) were called active. 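Raw plate signals without normalisation; calls rest on plate z-scores that were not deposited; ratio present for only 364 wells.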 Entries without a mark were called inactive. Not given: the dose of the treatment.

Osi20 (Osiris 20) [SID104192360] — calcium entry signal, replicate 1: 3.34e7; calcium entry signal, replicate 2: 3.09e7; resting calcium signal, replicate 1: 1.55e7; resting calcium signal, replicate 2: 1.55e7
Dd (Dullard) [SID104200331] — calcium entry signal, replicate 1: 3.42e7; calcium entry signal, replicate 2: 3.07e7; resting calcium signal, replicate 1: 1.52e7; resting calcium signal, replicate 2: 1.28e7
mRpS5 (mitochondrial ribosomal protein S5) [SID104201147] — calcium entry signal, replicate 1: 4.31e7; calcium entry signal, replicate 2: 3.60e7; resting calcium signal, replicate 1: 2.23e7; resting calcium signal, replicate 2: 1.55e7
Lsm11 [SID104186030] — calcium entry signal, replicate 1: 3.54e7; calcium entry signal, replicate 2: 3.54e7; resting calcium signal, replicate 1: 1.86e7; resting calcium signal, replicate 2: 1.70e7
barc (barricade) [SID104191584] — calcium entry signal, replicate 1: 2.31e7; calcium entry signal, replicate 2: 2.61e7; resting calcium signal, replicate 1: 1.45e7; resting calcium signal, replicate 2: 2.02e7
AP-2alpha (Adaptor Protein complex 2, alpha subunit) [SID104180592] — calcium entry signal, replicate 1: 4.39e7; calcium entry signal, replicate 2: 4.67e7; resting calcium signal, replicate 1: 2.16e7; resting calcium signal, replicate 2: 1.93e7
CG11357 [SID104187975] — calcium entry signal, replicate 1: 2.42e7; calcium entry signal, replicate 2: 7.37e7; resting calcium signal, replicate 1: 1.15e7; resting calcium signal, replicate 2: 2.54e7
sip1 (septin interacting protein 1) [SID104183401] — calcium entry signal, replicate 1: 2.83e7; calcium entry signal, replicate 2: 3.28e7; resting calcium signal, replicate 1: 1.46e7; resting calcium signal, replicate 2: 1.45e7
sip1 (septin interacting protein 1) [SID104202051] — calcium entry signal, replicate 1: 4.04e7; calcium entry signal, replicate 2: 3.46e7; resting calcium signal, replicate 1: 2.56e7; resting calcium signal, replicate 2: 1.74e7
Cdc2rk (Cdc2-related kinase) [SID104187382] — calcium entry signal, replicate 1: 3.63e7; calcium entry signal, replicate 2: 3.31e7; resting calcium signal, replicate 1: 1.75e7; resting calcium signal, replicate 2: 1.58e7
Jhbp16 (Juvenile hormone binding protein 16) [SID104194831] — calcium entry signal, replicate 1: 3.67e7; calcium entry signal, replicate 2: 4.98e7; resting calcium signal, replicate 1: 5.36e7; resting calcium signal, replicate 2: 2.06e7
mthl7 (methuselah-like 7) [SID104190644] — calcium entry signal, replicate 1: 3.12e7; calcium entry signal, replicate 2: 3.53e7; resting calcium signal, replicate 1: 1.42e7; resting calcium signal, replicate 2: 1.61e7
ari-1 (ariadne 1) [SID104200100] — calcium entry signal, replicate 1: 3.60e7; calcium entry signal, replicate 2: 3.25e7; resting calcium signal, replicate 1: 1.82e7; resting calcium signal, replicate 2: 1.58e7
ari-1 (ariadne 1) [SID104201307] — calcium entry signal, replicate 1: 2.16e7; calcium entry signal, replicate 2: 3.26e7; resting calcium signal, replicate 1: 1.18e7; resting calcium signal, replicate 2: 1.59e7

Records above whose target name begins with C or c (2):
CG11357 [SID104187975] — calcium entry signal, replicate 1: 2.42e7; calcium entry signal, replicate 2: 7.37e7; resting calcium signal, replicate 1: 1.15e7; resting calcium signal, replicate 2: 2.54e7
Cdc2rk (Cdc2-related kinase) [SID104187382] — calcium entry signal, replicate 1: 3.63e7; calcium entry signal, replicate 2: 3.31e7; resting calcium signal, replicate 1: 1.75e7; resting calcium signal, replicate 2: 1.58e7
